Laboratory results reported in PubChem BioAssay AID1487 (National Center for Advancing Translational Sciences (NCATS), 2009).
Out of some 200,000 compounds screened, about 25 (0.01%) were called active. The source calls these results inconclusive, neither active nor inactive. Calls follow the shape of the dose curve; as a rule, active = well fitted inhibition curve with a large enough effect in the signal ratio, with a control signal flat (not every such curve was filed as active); inconclusive = small, poorly fitted or top-dose-only effect, or effect the other way, or a change in a side signal; inactive = flat fitted curve, though single readings scatter; the % refers to the signal ratio. Some tests of the compounds listed are not included; inactive here does not mean inactive elsewhere.

Experiment: qHTS Assay for Modulators of Lamin A Splicing
Conditions: HeLa LMNA splicing GFP/RFP minigene ratio, 48 h
Potency is read from the fitted curve at half-maximal effect.

Structure (SMILES)	Potency
CN(C)C1(CNC(=O)c2ccccc2[N+](=O)[O-])CCCCC1	inconclusive: 5.01 µM
CCCCC(CC)C(=O)N1CCN(C/C=C/c2ccccc2)CC1 (stereo not drawn)	inconclusive: 35.5 µM
Cc1cccc(C(=O)NCC2(N(C)C)CCCCC2)c1	inconclusive: 0.0282 µM
